Measured values from the supplement of paper PMC10849652.
This is one part of the list. Residues, ends and D or L forms follow the SMILES beside them. *: point of attachment. Cbz = O=C(OCc1ccccc1)*

Chains of the proteins cited; added tags and fusions are not shown. Lines headed by an entry give the natural chain unless they say otherwise; changes in a name come on top.
UniProt O43143: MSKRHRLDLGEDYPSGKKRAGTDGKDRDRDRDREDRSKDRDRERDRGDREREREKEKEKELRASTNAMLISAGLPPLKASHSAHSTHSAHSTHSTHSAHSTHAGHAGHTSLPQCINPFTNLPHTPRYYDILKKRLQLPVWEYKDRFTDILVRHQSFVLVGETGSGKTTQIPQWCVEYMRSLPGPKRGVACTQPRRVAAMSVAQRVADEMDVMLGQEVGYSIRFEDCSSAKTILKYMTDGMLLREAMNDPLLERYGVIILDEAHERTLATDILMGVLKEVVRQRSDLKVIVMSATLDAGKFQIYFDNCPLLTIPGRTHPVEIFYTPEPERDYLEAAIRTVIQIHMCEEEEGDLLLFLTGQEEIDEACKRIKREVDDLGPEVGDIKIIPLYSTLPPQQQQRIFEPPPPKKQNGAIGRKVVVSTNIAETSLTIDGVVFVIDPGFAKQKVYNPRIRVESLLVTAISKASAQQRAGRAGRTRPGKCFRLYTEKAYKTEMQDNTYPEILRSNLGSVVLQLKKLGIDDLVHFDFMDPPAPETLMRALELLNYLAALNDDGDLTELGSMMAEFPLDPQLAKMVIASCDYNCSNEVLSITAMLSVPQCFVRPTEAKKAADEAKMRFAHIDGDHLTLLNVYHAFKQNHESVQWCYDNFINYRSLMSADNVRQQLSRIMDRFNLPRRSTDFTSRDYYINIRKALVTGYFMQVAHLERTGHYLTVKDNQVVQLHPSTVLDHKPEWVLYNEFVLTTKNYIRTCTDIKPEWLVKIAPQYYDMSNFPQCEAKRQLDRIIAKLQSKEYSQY
UniProt Q9NYC9: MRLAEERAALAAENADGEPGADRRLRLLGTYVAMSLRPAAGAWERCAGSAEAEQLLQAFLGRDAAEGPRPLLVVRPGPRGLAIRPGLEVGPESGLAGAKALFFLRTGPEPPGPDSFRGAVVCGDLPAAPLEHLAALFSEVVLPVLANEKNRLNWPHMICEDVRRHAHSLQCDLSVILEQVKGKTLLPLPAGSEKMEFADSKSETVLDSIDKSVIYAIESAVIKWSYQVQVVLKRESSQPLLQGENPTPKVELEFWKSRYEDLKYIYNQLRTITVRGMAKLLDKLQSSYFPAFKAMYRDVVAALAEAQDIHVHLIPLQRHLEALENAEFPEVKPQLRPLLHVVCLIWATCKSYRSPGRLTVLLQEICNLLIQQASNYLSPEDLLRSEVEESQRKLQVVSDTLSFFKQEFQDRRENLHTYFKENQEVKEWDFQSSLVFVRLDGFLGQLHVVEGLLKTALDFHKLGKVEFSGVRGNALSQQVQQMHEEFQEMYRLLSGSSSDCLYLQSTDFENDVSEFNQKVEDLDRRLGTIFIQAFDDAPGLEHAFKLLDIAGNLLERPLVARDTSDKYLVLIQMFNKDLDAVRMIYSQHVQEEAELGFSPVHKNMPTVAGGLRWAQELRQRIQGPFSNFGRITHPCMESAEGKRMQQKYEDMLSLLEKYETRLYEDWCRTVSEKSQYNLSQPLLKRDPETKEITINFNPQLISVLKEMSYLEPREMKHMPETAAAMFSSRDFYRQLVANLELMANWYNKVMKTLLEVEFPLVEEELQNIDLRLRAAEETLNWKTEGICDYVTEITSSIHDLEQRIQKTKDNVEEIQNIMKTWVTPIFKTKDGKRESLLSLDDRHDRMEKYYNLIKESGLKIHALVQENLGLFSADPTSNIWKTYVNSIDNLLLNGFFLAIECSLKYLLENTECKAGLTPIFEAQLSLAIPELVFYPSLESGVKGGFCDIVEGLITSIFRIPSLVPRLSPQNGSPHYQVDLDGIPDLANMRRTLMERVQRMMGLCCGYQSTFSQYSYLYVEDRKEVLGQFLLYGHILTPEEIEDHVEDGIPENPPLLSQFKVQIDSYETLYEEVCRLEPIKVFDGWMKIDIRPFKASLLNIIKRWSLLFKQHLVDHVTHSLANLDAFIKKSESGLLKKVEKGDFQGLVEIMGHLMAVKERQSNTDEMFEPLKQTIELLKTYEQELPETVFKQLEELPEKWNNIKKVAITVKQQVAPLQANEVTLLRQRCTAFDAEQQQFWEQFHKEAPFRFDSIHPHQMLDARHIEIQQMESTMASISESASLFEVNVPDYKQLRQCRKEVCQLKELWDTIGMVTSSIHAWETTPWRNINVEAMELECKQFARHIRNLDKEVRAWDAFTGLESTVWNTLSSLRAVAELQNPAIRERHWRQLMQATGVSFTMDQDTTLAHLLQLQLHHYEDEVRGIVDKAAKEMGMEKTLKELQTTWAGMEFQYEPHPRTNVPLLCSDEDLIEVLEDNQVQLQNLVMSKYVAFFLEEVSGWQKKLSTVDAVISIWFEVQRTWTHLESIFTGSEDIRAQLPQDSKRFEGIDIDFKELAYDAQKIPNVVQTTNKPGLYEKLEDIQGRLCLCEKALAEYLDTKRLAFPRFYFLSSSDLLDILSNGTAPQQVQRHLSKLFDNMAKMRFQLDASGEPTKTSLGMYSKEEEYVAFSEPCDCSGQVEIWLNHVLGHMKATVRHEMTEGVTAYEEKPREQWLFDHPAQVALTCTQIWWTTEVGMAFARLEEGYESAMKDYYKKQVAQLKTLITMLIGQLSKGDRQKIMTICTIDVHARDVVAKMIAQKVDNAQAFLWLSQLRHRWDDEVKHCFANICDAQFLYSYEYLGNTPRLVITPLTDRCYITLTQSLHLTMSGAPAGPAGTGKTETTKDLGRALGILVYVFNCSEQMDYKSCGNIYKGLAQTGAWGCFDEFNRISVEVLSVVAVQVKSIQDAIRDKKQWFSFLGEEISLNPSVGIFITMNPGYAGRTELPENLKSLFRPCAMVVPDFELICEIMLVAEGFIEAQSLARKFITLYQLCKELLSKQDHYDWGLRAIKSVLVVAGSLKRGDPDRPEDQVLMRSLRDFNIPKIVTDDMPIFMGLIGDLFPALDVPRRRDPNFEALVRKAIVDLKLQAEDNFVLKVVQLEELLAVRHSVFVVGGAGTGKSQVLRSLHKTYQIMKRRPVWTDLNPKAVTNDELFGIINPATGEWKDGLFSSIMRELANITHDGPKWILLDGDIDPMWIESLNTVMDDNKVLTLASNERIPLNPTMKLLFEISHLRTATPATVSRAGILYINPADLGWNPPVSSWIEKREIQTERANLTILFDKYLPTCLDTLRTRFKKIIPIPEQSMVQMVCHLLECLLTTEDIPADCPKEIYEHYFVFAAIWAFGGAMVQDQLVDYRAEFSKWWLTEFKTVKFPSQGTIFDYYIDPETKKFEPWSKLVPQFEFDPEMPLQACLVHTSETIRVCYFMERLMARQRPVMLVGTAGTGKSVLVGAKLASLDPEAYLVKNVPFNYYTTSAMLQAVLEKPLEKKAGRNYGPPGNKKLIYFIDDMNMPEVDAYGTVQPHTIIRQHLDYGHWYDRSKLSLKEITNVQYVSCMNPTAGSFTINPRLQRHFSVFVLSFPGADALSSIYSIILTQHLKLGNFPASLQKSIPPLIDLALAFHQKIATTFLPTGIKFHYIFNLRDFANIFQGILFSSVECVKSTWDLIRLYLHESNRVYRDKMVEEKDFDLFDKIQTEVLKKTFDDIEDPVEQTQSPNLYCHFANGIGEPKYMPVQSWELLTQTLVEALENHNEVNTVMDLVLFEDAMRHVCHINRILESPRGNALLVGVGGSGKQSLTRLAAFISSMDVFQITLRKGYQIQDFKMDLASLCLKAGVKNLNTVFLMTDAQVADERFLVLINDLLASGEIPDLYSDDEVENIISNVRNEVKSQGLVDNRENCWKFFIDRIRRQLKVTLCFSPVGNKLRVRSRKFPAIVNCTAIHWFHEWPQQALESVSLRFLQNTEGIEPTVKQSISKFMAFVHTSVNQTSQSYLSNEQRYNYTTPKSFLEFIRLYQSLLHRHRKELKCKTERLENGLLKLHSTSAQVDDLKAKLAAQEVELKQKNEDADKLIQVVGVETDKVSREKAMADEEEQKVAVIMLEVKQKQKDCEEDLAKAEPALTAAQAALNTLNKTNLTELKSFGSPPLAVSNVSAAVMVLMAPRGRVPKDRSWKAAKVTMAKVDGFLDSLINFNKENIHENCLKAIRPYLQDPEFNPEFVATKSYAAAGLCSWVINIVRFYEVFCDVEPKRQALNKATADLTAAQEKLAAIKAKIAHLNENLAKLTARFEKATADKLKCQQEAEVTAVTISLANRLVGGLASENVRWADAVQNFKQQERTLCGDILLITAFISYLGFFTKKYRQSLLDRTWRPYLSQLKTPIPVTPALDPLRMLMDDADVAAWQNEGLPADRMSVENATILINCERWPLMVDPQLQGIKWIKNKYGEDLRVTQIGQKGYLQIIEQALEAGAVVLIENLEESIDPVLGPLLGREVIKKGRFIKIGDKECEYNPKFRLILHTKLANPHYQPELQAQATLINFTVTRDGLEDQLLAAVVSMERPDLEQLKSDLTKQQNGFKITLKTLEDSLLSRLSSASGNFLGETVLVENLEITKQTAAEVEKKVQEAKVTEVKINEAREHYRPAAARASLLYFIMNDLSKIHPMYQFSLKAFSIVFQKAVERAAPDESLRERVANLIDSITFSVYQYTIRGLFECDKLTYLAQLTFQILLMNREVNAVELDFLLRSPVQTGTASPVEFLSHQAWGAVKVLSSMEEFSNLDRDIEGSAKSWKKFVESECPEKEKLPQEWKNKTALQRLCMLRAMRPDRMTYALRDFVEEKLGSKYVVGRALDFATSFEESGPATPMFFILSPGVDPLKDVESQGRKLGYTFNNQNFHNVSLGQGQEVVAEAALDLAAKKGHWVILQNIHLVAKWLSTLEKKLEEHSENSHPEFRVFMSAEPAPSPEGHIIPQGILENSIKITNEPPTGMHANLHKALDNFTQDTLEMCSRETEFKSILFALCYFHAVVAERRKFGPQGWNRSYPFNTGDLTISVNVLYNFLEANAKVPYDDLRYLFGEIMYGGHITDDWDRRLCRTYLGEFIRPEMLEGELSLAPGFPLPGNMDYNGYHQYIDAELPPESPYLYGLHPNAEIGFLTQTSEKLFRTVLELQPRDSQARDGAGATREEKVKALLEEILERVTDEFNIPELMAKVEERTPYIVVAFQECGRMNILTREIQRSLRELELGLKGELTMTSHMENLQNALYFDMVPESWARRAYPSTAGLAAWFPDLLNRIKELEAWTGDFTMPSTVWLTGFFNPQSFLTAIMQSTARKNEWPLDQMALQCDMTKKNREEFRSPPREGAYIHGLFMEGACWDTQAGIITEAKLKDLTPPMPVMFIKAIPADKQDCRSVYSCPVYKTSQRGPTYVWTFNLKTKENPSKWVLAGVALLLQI
UniProt Q9Y2L1: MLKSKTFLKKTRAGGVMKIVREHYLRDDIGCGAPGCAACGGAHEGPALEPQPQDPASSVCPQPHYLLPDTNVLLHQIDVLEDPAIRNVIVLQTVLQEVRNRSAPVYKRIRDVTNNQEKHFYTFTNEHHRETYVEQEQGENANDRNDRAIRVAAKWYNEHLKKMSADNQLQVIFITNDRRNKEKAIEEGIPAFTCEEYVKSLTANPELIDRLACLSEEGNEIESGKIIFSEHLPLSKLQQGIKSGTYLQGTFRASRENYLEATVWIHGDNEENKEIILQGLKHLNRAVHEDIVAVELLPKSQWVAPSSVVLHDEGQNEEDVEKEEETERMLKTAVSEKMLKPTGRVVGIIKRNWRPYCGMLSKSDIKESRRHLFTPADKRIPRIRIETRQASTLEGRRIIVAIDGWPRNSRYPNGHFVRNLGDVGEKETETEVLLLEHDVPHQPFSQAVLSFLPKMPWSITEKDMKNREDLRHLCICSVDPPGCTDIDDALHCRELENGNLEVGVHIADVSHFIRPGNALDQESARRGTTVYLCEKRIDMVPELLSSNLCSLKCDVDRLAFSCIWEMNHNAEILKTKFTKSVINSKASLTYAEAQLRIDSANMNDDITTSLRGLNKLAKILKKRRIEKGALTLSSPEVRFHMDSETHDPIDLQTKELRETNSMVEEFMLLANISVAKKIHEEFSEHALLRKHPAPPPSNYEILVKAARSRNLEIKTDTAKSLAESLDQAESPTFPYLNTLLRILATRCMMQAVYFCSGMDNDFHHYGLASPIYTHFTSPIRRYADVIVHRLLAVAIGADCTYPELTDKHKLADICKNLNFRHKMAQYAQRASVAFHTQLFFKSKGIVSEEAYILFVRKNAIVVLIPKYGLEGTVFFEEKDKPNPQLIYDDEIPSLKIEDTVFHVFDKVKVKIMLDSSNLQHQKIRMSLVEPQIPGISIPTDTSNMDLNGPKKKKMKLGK
UniProt Q13268: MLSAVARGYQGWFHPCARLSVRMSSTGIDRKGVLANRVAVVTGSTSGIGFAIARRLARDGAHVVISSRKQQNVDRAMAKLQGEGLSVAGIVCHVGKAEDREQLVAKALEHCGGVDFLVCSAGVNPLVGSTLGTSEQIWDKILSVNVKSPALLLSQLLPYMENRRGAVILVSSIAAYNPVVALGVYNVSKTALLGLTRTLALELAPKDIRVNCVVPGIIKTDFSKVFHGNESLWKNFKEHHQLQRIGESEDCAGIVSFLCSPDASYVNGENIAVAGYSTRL

Columns and labels:
Assay in all cases: log2 fold change, soluble protein after heating vs DMSO (PISA); higher = thermal stabilisation; K562 cells, 10 uM, 30 min; active = over 0.2 and 3.5 SD of the protein, either way, in both replicates (recomputed)
IRAK-1-4 Inhibitor I = compound: C1COCCN1CCN2C3=CC=CC=C3N=C2NC(=O)C4=CC(=CC=C4)[N+](=O)[O-] [IRAK-1-4 Inhibitor I]
Method in brief: (§1)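 Soluble protein was quantified by TMTpro 16plex LC-MS/MS after channel sums were equalised. It was obtained as the supernatant after 21,000xg for 90 min from pooled aliquots of K562 cells (2×10^6 cells/mL, 10 μM compound, 30 min) heated for 3 min across 48°C-58°C and extracted in PBS with 0.5% NP-40 at 4°C. Thermal stability values are relative to control samples and come from duplicates. They are given as log2 fold changes.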

ibrutinib = compound: C=CC(=O)N1CCC[C@@H](n2nc(-c3ccc(Oc4ccccc4)cc3)c3c(N)ncnc32)C1 [ibrutinib]
Method in brief: as §1

[1] = compound: CC(=O)c1cnc2ccc(-c3cc(Cl)c(O)c(Cl)c3)nc2c1N[C@H]1CC[C@H](CN(C)C)CC1
Method in brief: as §1

ralimetinib = compound: CC(C)(C)Cn1c(N)nc2ccc(-c3[nH]c(C(C)(C)C)nc3-c3ccc(F)cc3)nc21 [ralimetinib]
Method in brief: as §1

[2] = compound: CC(C)(O)CC(=O)NCCn1ccc2ncnc(Nc3ccc(Oc4cccc(C(F)(F)F)c4)c(Cl)c3)c21
Method in brief: as §1

[3] = compound: CC(C)C1=C2N=C(C=C(N2N=C1)NCC3=CC=CC=C3)NCCCCCCN
Method in brief: as §1

[4] = compound: CC(C)C[C@@H](C=O)NC(=O)[C@H](CC(C)C)NC(=O)[C@H](CC(C)C)NC(=O)OCc1ccccc1
Method in brief: as §1

pinometostat = compound: CC(C)N(C[C@H]1O[C@@H](n2cnc3c(N)ncnc32)[C@H](O)[C@@H]1O)[C@H]1C[C@@H](CCc2nc3cc(C(C)(C)C)ccc3[nH]2)C1 [pinometostat]
Method in brief: as §1

[5] = compound: CC1=C(C(CC(=O)N1)C2=CC=C(C=C2)C(F)(F)F)C(=O)NC3=C(C=C4C(=C3)C=NN4)F
Method in brief: as §1

[6] = compound: CC1=C(C2=C(C=C1)C(=O)C3=CC=CC=C3N2CCCN)C
Method in brief: as §1

Measured: log2 fold change

DDX49 (UniProt Q9Y6V7)
inactive: IRAK-1-4 Inhibitor I -0.171 | ibrutinib 0.008 | [1] 0.059 | ralimetinib 0.031 | [2] -0.001 | [3] 0.039 | [4] 0.07 | pinometostat 0.179 | [5] 0.003 | [6] 0.027

DDA1 (UniProt Q9BW61)
inactive: IRAK-1-4 Inhibitor I 0.005 | ibrutinib -0.092 | [1] -0.033 | ralimetinib -0.037 | [2] -0.034 | [3] 0.015 | [4] 0.082 | pinometostat -0.059 | [5] 0.059 | [6] 0.016

DERL1 (UniProt Q9BUN8)
inactive: IRAK-1-4 Inhibitor I -0.045 | ibrutinib 0.059 | [1] -0.09 | ralimetinib -0.039 | [2] -0.049 | [3] -0.004 | [4] -0.101 | pinometostat 0.014 | [5] 0 | [6] 0.036

DLGAP5 (UniProt Q15398)
inactive: IRAK-1-4 Inhibitor I -0.005 | ibrutinib -0.04 | [1] -0.044 | ralimetinib 0.074 | [2] 0 | [3] -0.202 | [4] 0.029 | pinometostat 0.088 | [5] 0.029 | [6] 0.004

DENND4C isoform 7 (UniProt Q5VZ89)
inactive: IRAK-1-4 Inhibitor I 0.052 | ibrutinib -0.066 | [1] -0.108 | ralimetinib 0.013 | [2] -0.092 | [3] -0.159 | [4] 0.063 | pinometostat 0.101 | [5] 0.065 | [6] 0.019

DHX15 (UniProt O43143)
inactive: IRAK-1-4 Inhibitor I 0.02 | ibrutinib -0.008 | [1] 0.012 | ralimetinib -0.038 | [2] 0 | [3] 0.051 | [4] -0.026 | pinometostat 0.001 | [5] 0 | [6] 0.086

DNAH9 (UniProt Q9NYC9)
inactive: IRAK-1-4 Inhibitor I -0.011 | ibrutinib -0.012 | [1] 0.032 | ralimetinib -0.078 | [2] -0.017 | [3] 0.067 | [4] -0.028 | pinometostat -0.093 | [5] -0.021 | [6] -0.024

DDX19B (UniProt Q9UMR2)
inactive: IRAK-1-4 Inhibitor I 0.022 | ibrutinib -0.029 | [1] -0.014 | ralimetinib 0.009 | [2] -0.108 | [3] -0.035 | [4] -0.008 | pinometostat -0.012 | [5] -0.008 | [6] 0.016

DDX3X (UniProt O00571)
inactive: IRAK-1-4 Inhibitor I -0.183 | ibrutinib 0.045 | [1] -0.046 | ralimetinib 0.386 | [2] 0.129 | [3] -0.127 | [4] 0.308 | pinometostat 0.668 | [5] 0.016 | [6] -0.103

DHX57 (UniProt Q6P158)
inactive: IRAK-1-4 Inhibitor I -0.1 | ibrutinib 0.076 | [1] 0.072 | ralimetinib 0.154 | [2] 0.024 | [3] 0.033 | [4] 0.108 | pinometostat 0.176 | [5] -0.014 | [6] -0.135

DES (UniProt P17661)
inactive: IRAK-1-4 Inhibitor I -0.094 | ibrutinib 0.136 | [1] 0.012 | ralimetinib 0.196 | [2] 0.347 | [3] 0.037 | [4] 0.033 | pinometostat 0.112 | [5] -0.005 | [6] -0.039

DDX19A (UniProt Q9NUU7)
inactive: IRAK-1-4 Inhibitor I 0.052 | ibrutinib 0.002 | [1] -0.004 | ralimetinib -0.005 | [2] -0.054 | [3] -0.022 | [4] -0.054 | pinometostat -0.054 | [5] 0.005 | [6] 0.016

DDAH2 (UniProt O95865)
inactive: IRAK-1-4 Inhibitor I 0.03 | ibrutinib -0.007 | [1] -0.027 | ralimetinib -0.062 | [2] -0.027 | [3] 0.054 | [4] -0.002 | pinometostat -0.06 | [5] 0.008 | [6] 0.141

2 neighbouring entries out of the list so far, quoted:
DDA1 (UniProt Q9BW61)
inactive: IRAK-1-4 Inhibitor I 0.005 | ibrutinib -0.092 | [1] -0.033 | ralimetinib -0.037 | [2] -0.034 | [3] 0.015 | [4] 0.082 | pinometostat -0.059 | [5] 0.059 | [6] 0.016

DERL1 (UniProt Q9BUN8)
inactive: IRAK-1-4 Inhibitor I -0.045 | ibrutinib 0.059 | [1] -0.09 | ralimetinib -0.039 | [2] -0.049 | [3] -0.004 | [4] -0.101 | pinometostat 0.014 | [5] 0 | [6] 0.036

Later entries.

DDX21 (UniProt Q9NR30)
inactive: IRAK-1-4 Inhibitor I -0.077 | ibrutinib -0.015 | [1] 0.008 | ralimetinib 0.117 | [2] -0.026 | [3] 0.022 | [4] 0.291 | pinometostat 0.248 | [5] -0.032 | [6] 0.006

DHX8 (UniProt Q14562)
inactive: IRAK-1-4 Inhibitor I -0.043 | ibrutinib -0.046 | [1] 0.051 | ralimetinib -0.03 | [2] 0.004 | [3] 0.03 | [4] 0.124 | pinometostat 0.014 | [5] 0.026 | [6] 0.189

DLG2 isoform 2 (UniProt Q15700)
inactive: IRAK-1-4 Inhibitor I 0.007 | ibrutinib -0.045 | [1] 0.013 | ralimetinib -0.026 | [2] -0.047 | [3] 0.005 | [4] 0.013 | pinometostat -0.06 | [5] 0.173 | [6] -0.017

DHX38 (UniProt Q92620)
inactive: IRAK-1-4 Inhibitor I 0.053 | ibrutinib 0.049 | [1] 0.081 | ralimetinib 0.026 | [2] 0.033 | [3] 0.068 | [4] 0.005 | pinometostat 0 | [5] -0.018 | [6] 0.062

DGKZ (UniProt Q13574)
inactive: IRAK-1-4 Inhibitor I -0.034 | ibrutinib 0.043 | [1] -0.127 | ralimetinib 0.008 | [2] -0.024 | [3] 0.009 | [4] 0.142 | pinometostat 0.031 | [5] -0.009 | [6] 0.053

DKC1 (UniProt O60832)
inactive: IRAK-1-4 Inhibitor I -0.056 | ibrutinib -0.01 | [1] 0.021 | ralimetinib 0.073 | [2] 0.035 | [3] 0.146 | [4] 0.046 | pinometostat 0.105 | [5] 0 | [6] 0.153

DNAJA1 (UniProt P31689)
inactive: IRAK-1-4 Inhibitor I 0.004 | ibrutinib 0.011 | [1] -0.05 | ralimetinib -0.022 | [2] -0.015 | [3] 0.016 | [4] -0.023 | pinometostat -0.015 | [5] 0.014 | [6] 0.019

DIS3 (UniProt Q9Y2L1)
inactive: IRAK-1-4 Inhibitor I -0.024 | ibrutinib -0.02 | [1] -0.122 | ralimetinib 0.026 | [2] -0.146 | [3] -0.165 | [4] -0.006 | pinometostat -0.003 | [5] 0.011 | [6] 0.105

DIABLO (UniProt Q9NR28)
inactive: IRAK-1-4 Inhibitor I 0.008 | ibrutinib 0.014 | [1] 0.035 | ralimetinib -0.117 | [2] -0.021 | [3] 0.064 | [4] 0.024 | pinometostat -0.059 | [5] 0.016 | [6] -0.042

DHX9 (UniProt Q08211)
inactive: IRAK-1-4 Inhibitor I -0.062 | ibrutinib -0.017 | [1] 0.028 | ralimetinib 0.08 | [2] 0.103 | [3] 0.243 | [4] 0.091 | pinometostat 0.199 | [5] -0.02 | [6] -0.114

DDX59 (UniProt Q5T1V6)
inactive: IRAK-1-4 Inhibitor I -0.068 | ibrutinib -0.12 | [1] -0.04 | ralimetinib -0.054 | [2] -0.131 | [3] -0.015 | [4] -0.001 | pinometostat -0.064 | [5] -0.043 | [6] 0.04

DDX17 (UniProt Q92841)
inactive: IRAK-1-4 Inhibitor I -0.114 | ibrutinib -0.003 | [1] -0.089 | ralimetinib -0.01 | [2] -0.082 | [3] -0.095 | [4] 0.047 | pinometostat 0.018 | [5] -0.025 | [6] 0.137

DEK (UniProt P35659)
inactive: IRAK-1-4 Inhibitor I -0.056 | ibrutinib -0.004 | [1] -0.097 | ralimetinib 0.048 | [2] -0.1 | [3] -0.128 | [4] 0.032 | pinometostat -0.039 | [5] -0.003 | [6] 0.038

DHRS2 (UniProt Q13268)
inactive: IRAK-1-4 Inhibitor I -0.009 | ibrutinib 0.12 | [1] 0.012 | ralimetinib 0.021 | [2] 0.001 | [3] 0.022 | [4] -0.114 | pinometostat -0.016 | [5] 0.045 | [6] -0.046

DMAC2L (UniProt Q99766)
inactive: IRAK-1-4 Inhibitor I -0.025 | ibrutinib 0.002 | [1] -0.028 | ralimetinib -0.029 | [2] 0.042 | [3] 0.117 | [4] -0.02 | pinometostat 0.002 | [5] -0.051 | [6] 0.061

DENND4B (UniProt O75064)
inactive: IRAK-1-4 Inhibitor I 0.009 | ibrutinib 0.01 | [1] -0.088 | ralimetinib 0.03 | [2] -0.031 | [3] -0.038 | [4] 0.044 | pinometostat 0.029 | [5] 0.103 | [6] 0.101

DCXR (UniProt Q7Z4W1)
inactive: IRAK-1-4 Inhibitor I 0.027 | ibrutinib 0.013 | [1] 0 | ralimetinib -0.081 | [2] 0.001 | [3] 0.054 | [4] -0.037 | pinometostat -0.038 | [5] 0.017 | [6] -0.011
